Measurements reported in PubChem BioAssay AID743121 (NCATS, 2013)
Assay: 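Partners whose loss is lethal together with topoisomerase I blockade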 (primary screen). System: MDA-MB-231 cells, a human breast cancer line. Knock-down reagent: single siRNA against human genes, 20 nM siRNA (0.8 pmol per well). Timing: 120 h (drug added 48 h after transfection, read 72 h later). Conditions: camptothecin 20 nM (about EC30) for 72 h; vehicle 0.1% DMSO in parallel plates. Measured: 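CellTiter-Glo ATP signal, scaled to control siRNA as percent viability; sensitisation given as log2 of untreated divided by camptothecin-treated viability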. Direction: log2 vehicle/camptothecin viability: higher = stronger sensitisation to camptothecin. Call rule: 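Each gene scored by redundant siRNA activity (RSA) over its individual siRNA ratios; a gene is called active at p < 0.001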.
In all, the deposit lists about 26,000 reagents; this is a random part of them. 167 of all reagents (0.63%) were called active. 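Calls are per gene from RSA p-values that are not deposited; an individual active-marked siRNA can sensitise only weakly.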 The numbers tell different reagents against one gene apart. Further read-outs or replicates are left out here. No sequences are given here.

| gene | siRNA no. | log2 vehicle/camptothecin viability | Outcome |
| --- | --- | --- | --- |
| MAP2K3 (mitogen-activated protein kinase kinase 3) | 1 | 0.409 | inactive |
| MAP2K3 (mitogen-activated protein kinase kinase 3) | 2 | -0.689 | inactive |
| MAP2K3 (mitogen-activated protein kinase kinase 3) | 3 | -0.081 | inactive |
| MAP2K3 (mitogen-activated protein kinase kinase 3) | 4 | -0.328 | inactive |
| VLDLR (very low density lipoprotein receptor) | 1 | -0.188 | inactive |
| VLDLR (very low density lipoprotein receptor) | 2 | 1.27 | inactive |
| VLDLR (very low density lipoprotein receptor) | 3 | 0.00251 | inactive |
| VLDLR (very low density lipoprotein receptor) | 4 | -0.313 | inactive |
| LIMS1 (LIM zinc finger domain containing 1) | 1 | -0.307 | inactive |
| LIMS1 (LIM zinc finger domain containing 1) | 2 | -0.19 | inactive |
| LIMS1 (LIM zinc finger domain containing 1) | 3 | -0.325 | inactive |
| LIMS1 (LIM zinc finger domain containing 1) | 4 | 0.383 | inactive |
| UCP1 (uncoupling protein 1) | 1 | -0.0928 | inactive |
| UCP1 (uncoupling protein 1) | 2 | -0.457 | inactive |
| UCP1 (uncoupling protein 1) | 3 | -0.309 | inactive |
| UCP1 (uncoupling protein 1) | 4 | -0.272 | inactive |
| CD79A (CD79a molecule) | 1 | -0.132 | inactive |
| CD79A (CD79a molecule) | 2 | -0.089 | inactive |
| CD79A (CD79a molecule) | 3 | -0.287 | inactive |
| ESPL1 (extra spindle pole bodies like 1, separase) | 1 | -0.301 | inactive |
| ESPL1 (extra spindle pole bodies like 1, separase) | 2 | -0.388 | inactive |
| ESPL1 (extra spindle pole bodies like 1, separase) | 3 | 0.255 | inactive |
| NRK (Nik related kinase) | 1 | -0.5 | inactive |
| NRK (Nik related kinase) | 2 | 0.225 | inactive |
| NRK (Nik related kinase) | 3 | -0.028 | inactive |
| NRK (Nik related kinase) | 4 | -0.15 | inactive |
| RSU1 (Ras suppressor protein 1) | 1 | -0.195 | inactive |
| RSU1 (Ras suppressor protein 1) | 2 | -0.0959 | inactive |
| RSU1 (Ras suppressor protein 1) | 3 | 0.0259 | inactive |
| HTR1E (5-hydroxytryptamine receptor 1E) | 1 | 0.241 | inactive |
| HTR1E (5-hydroxytryptamine receptor 1E) | 2 | 1.05 | inactive |
| HTR1E (5-hydroxytryptamine receptor 1E) | 3 | -0.368 | inactive |
| MATK (megakaryocyte-associated tyrosine kinase) | 1 | -0.207 | inactive |
| MATK (megakaryocyte-associated tyrosine kinase) | 2 | -0.264 | inactive |
| MATK (megakaryocyte-associated tyrosine kinase) | 3 | 0.338 | inactive |
| MATK (megakaryocyte-associated tyrosine kinase) | 4 | -0.403 | inactive |
| ADCY7 (adenylate cyclase 7) | 1 | 0.0379 | inactive |
| ADCY7 (adenylate cyclase 7) | 2 | -0.202 | inactive |
| ADCY7 (adenylate cyclase 7) | 3 | -0.0181 | inactive |
| ADCY7 (adenylate cyclase 7) | 4 | 0.333 | inactive |
| UBASH3A (ubiquitin associated and SH3 domain containing A) | 1 | -0.372 | inactive |
| UBASH3A (ubiquitin associated and SH3 domain containing A) | 2 | -0.0508 | inactive |
| UBASH3A (ubiquitin associated and SH3 domain containing A) | 3 | -0.786 | inactive |
| IHH (Indian hedgehog signaling molecule) | 1 | -0.00166 | inactive |
| IHH (Indian hedgehog signaling molecule) | 2 | -0.125 | inactive |
| IHH (Indian hedgehog signaling molecule) | 3 | -0.243 | inactive |
| IHH (Indian hedgehog signaling molecule) | 4 | -0.0443 | inactive |

A stretch of the results above:
| gene | siRNA no. | log2 vehicle/camptothecin viability | Outcome |
| --- | --- | --- | --- |
| CD79A (CD79a molecule) | 3 | -0.287 | inactive |
| ESPL1 (extra spindle pole bodies like 1, separase) | 1 | -0.301 | inactive |
| ESPL1 (extra spindle pole bodies like 1, separase) | 2 | -0.388 | inactive |
| ESPL1 (extra spindle pole bodies like 1, separase) | 3 | 0.255 | inactive |
| NRK (Nik related kinase) | 1 | -0.5 | inactive |
| NRK (Nik related kinase) | 2 | 0.225 | inactive |
| NRK (Nik related kinase) | 3 | -0.028 | inactive |
| NRK (Nik related kinase) | 4 | -0.15 | inactive |
| RSU1 (Ras suppressor protein 1) | 1 | -0.195 | inactive |
| RSU1 (Ras suppressor protein 1) | 2 | -0.0959 | inactive |

Next records:
| gene | siRNA no. | log2 vehicle/camptothecin viability | Outcome |
| --- | --- | --- | --- |
| TRMT61A (tRNA methyltransferase 61A) | 1 | -0.123 | inactive |
| TRMT61A (tRNA methyltransferase 61A) | 2 | -0.459 | inactive |
| TRMT61A (tRNA methyltransferase 61A) | 3 | -0.667 | inactive |
| TRMT61A (tRNA methyltransferase 61A) | 4 | -0.378 | inactive |
| SAT1 (spermidine/spermine N1-acetyltransferase 1) | 1 | 0.0635 | inactive |
| SAT1 (spermidine/spermine N1-acetyltransferase 1) | 2 | -0.0799 | inactive |
| SAT1 (spermidine/spermine N1-acetyltransferase 1) | 3 | -0.149 | inactive |
| SAT1 (spermidine/spermine N1-acetyltransferase 1) | 4 | -0.147 | inactive |
| NCOA4 (nuclear receptor coactivator 4) | 1 | 0.0023 | inactive |
| NCOA4 (nuclear receptor coactivator 4) | 2 | -0.0696 | inactive |
| NCOA4 (nuclear receptor coactivator 4) | 3 | 0.515 | inactive |
| NCOA4 (nuclear receptor coactivator 4) | 4 | 0.0114 | inactive |
| MMP25 (matrix metallopeptidase 25) | 1 | -0.495 | inactive |
| MMP25 (matrix metallopeptidase 25) | 2 | -0.635 | inactive |
| MMP25 (matrix metallopeptidase 25) | 3 | 0.176 | inactive |
| MMP25 (matrix metallopeptidase 25) | 4 | -0.134 | inactive |
| EPB41L1 (erythrocyte membrane protein band 4.1 like 1) | 1 | -0.104 | inactive |
| EPB41L1 (erythrocyte membrane protein band 4.1 like 1) | 2 | 0.0537 | inactive |
| EPB41L1 (erythrocyte membrane protein band 4.1 like 1) | 3 | 0.103 | inactive |
| EPB41L1 (erythrocyte membrane protein band 4.1 like 1) | 4 | -0.134 | inactive |
| CTTN (cortactin) | 1 | 0.0114 | inactive |
| CTTN (cortactin) | 2 | -0.416 | inactive |
| CTTN (cortactin) | 3 | 0.00474 | inactive |
| CTTN (cortactin) | 4 | 0.0657 | inactive |
